From paper PMC7922534, “Searching for Peptide Inhibitors of T Regulatory Cell Activity by Targeting Specific Domains of FOXP3 Transcription Factor” (Biomedicines, 2021)
These are yes or no findings as the source states them, for the method shown. Some binding calls cover weakened binding; strength is not graded here.

Amino acid sequences for entries named in this document (tags omitted).
UniProt Q01196: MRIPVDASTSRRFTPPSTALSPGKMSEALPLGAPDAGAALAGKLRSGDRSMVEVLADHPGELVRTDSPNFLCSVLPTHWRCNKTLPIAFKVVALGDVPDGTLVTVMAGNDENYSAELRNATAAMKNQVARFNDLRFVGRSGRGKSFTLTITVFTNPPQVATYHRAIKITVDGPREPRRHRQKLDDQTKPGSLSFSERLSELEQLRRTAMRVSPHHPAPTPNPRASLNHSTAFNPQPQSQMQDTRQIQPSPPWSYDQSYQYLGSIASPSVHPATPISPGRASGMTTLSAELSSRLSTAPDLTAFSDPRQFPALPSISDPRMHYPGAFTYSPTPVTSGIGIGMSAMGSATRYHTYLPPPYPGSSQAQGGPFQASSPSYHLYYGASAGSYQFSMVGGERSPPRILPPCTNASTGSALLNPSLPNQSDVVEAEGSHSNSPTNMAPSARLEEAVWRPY

T1: FOXP3-6His (UniProt Q9BZS1-1 1-417)
T1 construct: FOXP3 (Forkhead box protein 3) transcription factor; also called His-tagged FOXP3
T1 sequence (looked up): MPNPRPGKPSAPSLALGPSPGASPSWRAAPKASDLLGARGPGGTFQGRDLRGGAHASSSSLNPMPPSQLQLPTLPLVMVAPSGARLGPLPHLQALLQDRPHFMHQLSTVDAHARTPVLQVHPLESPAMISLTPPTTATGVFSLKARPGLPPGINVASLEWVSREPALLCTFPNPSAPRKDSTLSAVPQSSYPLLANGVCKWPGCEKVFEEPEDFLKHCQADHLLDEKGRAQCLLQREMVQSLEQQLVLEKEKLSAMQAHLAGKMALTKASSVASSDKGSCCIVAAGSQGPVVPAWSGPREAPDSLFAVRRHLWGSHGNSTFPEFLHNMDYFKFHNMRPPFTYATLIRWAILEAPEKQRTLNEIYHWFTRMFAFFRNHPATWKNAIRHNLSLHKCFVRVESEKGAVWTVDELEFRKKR


Assays:
[1] = target: FOXP3-GST fusion protein (UniProt Q9BZS1); test: AlphaScreen or HTRF; FOXP3-GST and AML1-His, similar protocol as for FOXP3/NFAT1; with or without peptide; both purified
[2] = target: T1, FOXP3-6His; test: SPR; FOXP3-6His immobilised covalently on a GLC sensor chip (ProteOn XPR36); peptides 10 uM injected in triplicate; PBS, 0.005% Tween 20, pH 7.4; 30 uL/min; interspot signal as reference; both purified

Row | Molecule | binding [1] | binding [2]
1 | TRMFAFFRNHPATWK [F368–382] |  | binds
2 | IYHWFTRMFAFFRNH [F363–377] |  | binds
3 | PATWKNAIRHNLSLH [F378–392] |  | binds

More lines, now with the values ahead:

Row | binding [1] | binding [2] | Molecule
4 | binds |  | AML1-His (from UniProt Q01196 1-453)
5 |  | binds | NAIRHNLSLHKCFVR [F383–397]
